For this assay, the target named is eGFP-tagged PDE6D (human). The experiment in a line: co-IP; visible immunoprecipitation (VIP) assay: lysates of HEK293T cells co-transfected with eGFP-PDE6D and mRFP-tagged cargo, anti-GFP or anti-mCherry nanobody beads, 1.5 h at 4 °C, beads imaged; confirmed by western blot.

These are yes or no findings as the source states them, for the method shown. In cells and extracts the contact can be indirect. A result given as binding can be weak or reduced; the word gives no strength. Where a sequence is shown, tags or fusion partners need not be part of it.

B1: mRFP-tagged FAM219A WT (protein, UniProt Q8IW50-1 1-185)
chain: MMEEIDRFQVPTAHSEMQPLDPAAASISDGDCDAREGESVAMNYKPSPLQVKLEKQRELARKGSLKNGSMGSPVNQQPKKNNVMARTRLVVPNKGYSSLDQSPDEKPLVALDTDSDDDFDMSRYSSSGYSSAEQINQDLNIQLLKDGYRLDEIPDDEDLDLIPPKSVNPTCMCCQATSSTACHIQ
modifications: prenylated (the paper calls the WT form prenylated)
In the case of B1, the binding entry was “binds”.

B2: mRFP-tagged FAM219A C > A (C182A) (protein, UniProt Q8IW50-1 1-185)
chain: MMEEIDRFQVPTAHSEMQPLDPAAASISDGDCDAREGESVAMNYKPSPLQVKLEKQRELARKGSLKNGSMGSPVNQQPKKNNVMARTRLVVPNKGYSSLDQSPDEKPLVALDTDSDDDFDMSRYSSSGYSSAEQINQDLNIQLLKDGYRLDEIPDDEDLDLIPPKSVNPTCMCCQATSSTAAHIQ
With B2, the binding entry was “no binding”.

The record behind these values is article PMC9857354.
